Test results as given in the supplement of paper PMC4604168 (melanoma cell lines).
The other results are listed elsewhere or left out. Single values are uncertain, as repeats are few or missing.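 Cells were imaged in 1,536-well plates, and nuclei stained with an antibody against cleaved PARP were counted against all DNA-stained nuclei to give the apoptosis fraction. Screening doses were chosen to leave most cells alive, and resting and induced cleaved-PARP levels differ strongly between cell lines.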

What follows are compounds tested on SkMel28 (assay: cleaved PARP positive nuclei fraction relative to DMSO control; melanoma cells; higher = more apoptosis). Settings: library dose: low library concentration; 72 h.

| SMILES | cleaved PARP positive nuclei fraction [%] |
| --- | --- |
| OCCn1cc(-c2cnc3nnn(Cc4ccc5ncccc5c4)c3n2)cn1 + COC(=O)c1sccc1S(=O)(=O)Nc1ccc(Nc2ccccc2)cc1OC [GSK0660] (first compound 1 µM, partner dose 1 µM) | 93.7 |
| O=C(Nc1cccc(Cl)c1)Nc1ncc(CCNc2ncnc3ccsc23)s1 + Oc1nc(-c2ccc(C(F)(F)F)cc2)nc2c1CSCC2 [XAV939] (first compound 0.0008 µM, partner dose 2 µM) | 146 |
| O=C(Nc1cccc(Cl)c1)Nc1ncc(CCNc2ncnc3ccsc23)s1 + COc1cc2ncnc(Nc3ccc(Oc4ccccc4)cc3)c2cc1OC [SrcI1] (first compound 0.0008 µM, partner dose 2 µM) | 82.7 |
| COc1cc(Nc2ncc(F)c(Nc3ccc4c(n3)NC(=O)C(C)(C)O4)n2)cc(OC)c1OC [Tamatinib] + COc1cc(N2CCC(N3CCN(C)CC3)CC2)ccc1Nc1ncc(Cl)c(Nc2ccccc2S(=O)(=O)C(C)C)n1 [NVP-TAE684] (first compound 0.4 µM, partner dose 0.08 µM) | 198 |

The compounds below were run on SkMel30 in the same assay as above. Settings: library dose: low library concentration; 72 h.

| SMILES | cleaved PARP positive nuclei fraction [%] |
| --- | --- |
| NC(=O)Nc1cc(-c2cccc(F)c2)sc1C(=O)N[C@H]1CCCNC1 + Oc1cc(-c2nc(-c3ccccc3)[nH]c2-c2ccncc2)ccc1Cl [L779450] (first compound 0.02 µM, partner dose 0.2 µM) | 16 |
| C#Cc1cccc(Nc2ncnc3cc(OCCOC)c(OCCOC)cc23)c1 [erlotinib] + c1cc(-c2cnn3cc(-c4ccc(OCCN5CCCCC5)cc4)cnc23)ccn1 [Dorsomorphin] (first compound 0.8 µM, partner dose 0.4 µM) | 29.5 |
| O=C(CCCCCCC(=O)Nc1ccccc1)NO [vorinostat] + CC(C)CCN1c2nc(Nc3cc(F)c(O)c(F)c3)ncc2N(C)C(=O)C1C [BID1870] (first compound 0.08 µM, partner dose 0.2 µM) | 41.4 |
| C#Cc1cccc(Nc2ncnc3cc(OCCOC)c(OCCOC)cc23)c1 [erlotinib] + CCCCCCCCCCCC1=C(O)C(=O)C=C(O)C1=O [Embelin] (first compound 0.8 µM, partner dose 1.2 µM) | 5.4 |
| Cn1nnc2c(C(N)=O)ncn2c1=O [temozolomide] + CC(C)CCN1c2nc(Nc3cc(F)c(O)c(F)c3)ncc2N(C)C(=O)C1C [BID1870] (first compound 2 µM, partner dose 0.2 µM) | 121 |
| C#Cc1cccc(Nc2ncnc3cc(OCCOC)c(OCCOC)cc23)c1 [erlotinib] + O=C(O)C(=O)Nc1sc2c(c1C(=O)O)CCNC2 [TCS401] (first compound 0.8 µM, partner dose 1.66667 µM) | 28.7 |
| Cn1c(Nc2ccc(C(F)(F)F)cc2)nc2cc(Oc3ccnc(-c4ncc(C(F)(F)F)[nH]4)c3)ccc21 + CCc1ccc(CCOc2ccc(CC3SC(=O)NC3=O)cc2)nc1 [pioglitazone] (first compound 0.08 µM, partner dose 2 µM) | 84.4 |
| OCCn1cc(-c2cnc3nnn(Cc4ccc5ncccc5c4)c3n2)cn1 + N#Cc1c(O)c2c(-c3ccc(-c4ccccc4O)cc3)csc2[nH]c1=O [A769662] (first compound 1 µM, partner dose 2 µM) | 20 |
| C=CCn1c(=O)c2cnc(Nc3ccc(N4CCN(C)CC4)cc3)nc2n1-c1cccc(C(C)(C)O)n1 + O=C(O)C(=O)Nc1sc2c(c1C(=O)O)CCNC2 [TCS401] (first compound 0.02 µM, partner dose 1.66667 µM) | 41.3 |
| Cn1nnc2c(C(N)=O)ncn2c1=O [temozolomide] + COC(=O)c1sccc1S(=O)(=O)Nc1ccc(Nc2ccccc2)cc1OC [GSK0660] (first compound 2 µM, partner dose 1 µM) | 25.8 |
| C[C@@H]1CCN(C(=O)CC#N)C[C@@H]1N(C)c1ncnc2[nH]ccc12 + Oc1nc(-c2ccc(C(F)(F)F)cc2)nc2c1CSCC2 [XAV939] (first compound 1 µM, partner dose 2 µM) | 73.2 |
| COCC[n+]1c2c(n(Cc3cnccn3)c1C)C(=O)c1ccccc1C2=O + O=C(O)C(=O)Nc1sc2c(c1C(=O)O)CCNC2 [TCS401] (first compound 0.0004 µM, partner dose 1.66667 µM) | 20.7 |

Reformatted as labelled records: entries from further up
Cn1c(Nc2ccc(C(F)(F)F)cc2)nc2cc(Oc3ccnc(-c4ncc(C(F)(F)F)[nH]4)c3)ccc21 + CCc1ccc(CCOc2ccc(CC3SC(=O)NC3=O)cc2)nc1 [pioglitazone] (first compound 0.08 µM, partner dose 2 µM)
  cleaved PARP positive nuclei fraction [%]: 84.4
OCCn1cc(-c2cnc3nnn(Cc4ccc5ncccc5c4)c3n2)cn1 + N#Cc1c(O)c2c(-c3ccc(-c4ccccc4O)cc3)csc2[nH]c1=O [A769662] (first compound 1 µM, partner dose 2 µM)
  cleaved PARP positive nuclei fraction [%]: 20
